Experimental data reported in patent US20070191273A1.
These are yes or no findings as the source states them, for the method shown. For some of these results: In cells and extracts the contact can be indirect. Some binding calls cover weakened binding; strength is not graded here.

Experiments:
[1] = target: T1, VEGF-A, endogenous, mouse cornea (mouse) (UniProt Q00731); experiment: immunoprecipitation of mouse corneas with antibody to the sFLT unique tail, western blot for VEGF (25 kD band)
T1 sequence (looked up): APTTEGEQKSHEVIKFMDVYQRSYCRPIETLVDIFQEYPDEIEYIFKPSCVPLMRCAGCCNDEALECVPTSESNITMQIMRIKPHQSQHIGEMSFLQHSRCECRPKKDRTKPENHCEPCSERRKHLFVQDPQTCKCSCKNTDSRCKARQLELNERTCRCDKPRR

[2] = target: T1, VEGF-A, endogenous, mouse cornea (mouse); experiment: co-immunoprecipitation from mouse cornea lysate: IP with anti-VEGF-A antibody, immunoblot with biotinylated anti-flt-1 N-terminus antibody
[3] = target: T1, VEGF-A, endogenous, mouse cornea (mouse); experiment: co-immunoprecipitation from mouse cornea (FIG. 1, panel H)
[4] = target: T1, VEGF-A, endogenous, mouse cornea (mouse); experiment: immunoprecipitation of mouse corneas with antibody to the sFLT unique tail, western blot for VEGF (25 kD band); supernatant versus immunoprecipitate

Measured: binding

B1: soluble VEGF receptor-1 (sflt-1), endogenous, mouse cornea (receptor, UniProt P35969 23-657, looked up)
chain: YGSGSKLKVPELSLKGTQHVMQAGQTLFLKCRGEAAHSWSLPTTVSQEDKRLSITPPSACGRDNRQFCSTLTLDTAQANHTGLYTCRYLPTSTSKKKKAESSIYIFVSDAGSPFIEMHTDIPKLVHMTEGRQLIIPCRVTSPNVTVTLKKFPFDTLTPDGQRITWDSRRGFIIANATYKEIGLLNCEATVNGHLYQTNYLTHRQTNTILDVQIRPPSPVRLLHGQTLVLNCTATTELNTRVQMSWNYPGKATKRASIRQRIDRSHSHNNVFHSVLKINNVESRDKGLYTCRVKSGSSFQSFNTSVHVYEKGFISVKHRKQPVQETTAGRRSYRLSMKVKAFPSPEIVWLKDGSPATLKSARYLVHGYSLIIKDVTTEDAGDYTILLGIKQSRLFKNLTATLIVNVKPQIYEKSVSSLPSPPLYPLGSRQVLTCTVYGIPRPTITWLWHPCHHNHSKERYDFCTENEESFILDPSSNLGNRIESISQRMTVIEGTNKTVSTLVVADSQTPGIYSCRAFNKIGTVERNIKFYVTDVPNGFHVSLEKMPAEGEDLKLSCVVNKFLYRDITWILLRTVNNRTMHHSISKQKMATTQDYSITLNLVIKNVSLEDSGTYACRARNIYTGEDILRKTEVLVR
binds: all assays above
